# Test results reported in the supplement of paper PMC8728848.
# This is one part of the list.
# Experiments:
# Assay in all cases: glycan array binding signal (z-score within array); higher = stronger binding
# Conditions in all cases: glycan notation: IUPAC condensed, linker removed; mutation: D224N
# [1] = biological target: Fuc(a1-2)Gal(b1-4)GlcNAc(b1-3)Gal(b1-4)GlcNAc(b1-2)Man(a1-3)[Fuc(a1-2)Gal(b1-4)GlcNAc(b1-3)Gal(b1-4)GlcNAc(b1-2)Man(a1-6)]Man(b1-4)GlcNAc(b1-4)GlcNAc
# Method in brief: (§1)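 The binding signal is a Z-score computed within each array and averaged over linkers. Arrays of the same protein sequence at different concentrations or buffers were also averaged together. Data originate from 3228 arrays in the Consortium for Functional Glycomics database, kept only where the protein sequence was available.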
# [2] = biological target: Fuc(a1-2)Gal(b1-4)GlcNAc(b1-3)Gal(b1-4)GlcNAc(b1-3)Gal(b1-4)GlcNAc
# Method in brief: as §1
# [3] = biological target: Fuc(a1-2)Gal(b1-4)GlcNAc(b1-3)GalNAc
# Method in brief: as §1
# [4] = biological target: Fuc(a1-2)Gal(b1-4)GlcNAc(b1-3)[Fuc(a1-2)Gal(b1-4)GlcNAc(b1-6)]GalNAc
# Method in brief: as §1
# [5] = biological target: Fuc(a1-2)Gal(b1-4)GlcNAc(b1-3)[Fuc(a1-3)[Gal(b1-4)]GlcNAc(b1-6)]Gal(b1-4)Glc
# Method in brief: as §1
# [6] = biological target: Fuc(a1-2)Gal(b1-4)GlcNAc(b1-6)GalNAc
# Method in brief: as §1
# [7] = biological target: Fuc(a1-2)Gal(b1-4)GlcNAc6S
# Method in brief: as §1
# [8] = biological target: Fuc(a1-2)Gal(b1-4)[Fuc(a1-3)]GlcNAc
# Method in brief: as §1
# [9] = biological target: Fuc(a1-2)Gal(b1-4)[Fuc(a1-3)]GlcNAc(b1-2)Man(a1-3)[Fuc(a1-2)Gal(b1-4)[Fuc(a1-3)]GlcNAc(b1-2)Man(a1-6)]Man(b1-4)GlcNAc(b1-4)[Fuc(a1-6)]GlcNAc
# Method in brief: as §1
# [10] = biological target: Fuc(a1-2)Gal(b1-4)[Fuc(a1-3)]GlcNAc(b1-2)[Fuc(a1-2)Gal(b1-4)[Fuc(a1-3)]GlcNAc(b1-4)]Man(a1-3)[Fuc(a1-2)Gal(b1-4)[Fuc(a1-3)]GlcNAc(b1-2)Man(a1-6)]Man(b1-4)GlcNAc(b1-4)GlcNAc
# Method in brief: as §1
# [11] = biological target: Fuc(a1-2)Gal(b1-4)[Fuc(a1-3)]GlcNAc(b1-3)Gal(b1-4)[Fuc(a1-3)]GlcNAc
# Method in brief: as §1
# [12] = biological target: Fuc(a1-2)Gal(b1-4)[Fuc(a1-3)]GlcNAc(b1-3)Gal(b1-4)[Fuc(a1-3)]GlcNAc(b1-3)Gal(b1-4)[Fuc(a1-3)]GlcNAc
# Method in brief: as §1
# [13] = biological target: Fuc(a1-2)Gal(b1-4)[Fuc(a1-3)]GlcNAc(b1-3)GalNAc
# Method in brief: as §1
# [14] = biological target: Fuc(a1-2)Gal(b1-4)[Fuc(a1-3)]GlcNAc(b1-3)[Neu5Ac(a2-6)Gal(b1-4)GlcNAc(b1-6)]Gal(b1-4)Glc
# Method in brief: as §1
# [15] = biological target: Fuc(a1-2)Gal3S(b1-4)GlcNAc
# Method in brief: as §1
# [16] = biological target: Fuc(a1-2)Gal6S(b1-3)GlcNAc
# Method in brief: as §1
# [17] = biological target: Fuc(a1-2)Gal6S(b1-3)GlcNAc6S
# Method in brief: as §1
# [18] = biological target: Fuc(a1-2)Gal6S(b1-4)Glc
# Method in brief: as §1
# [19] = biological target: Fuc(a1-2)Gal6S(b1-4)Glc6S
# Method in brief: as §1
# [20] = biological target: Fuc(a1-2)[Gal(a1-3)]Gal
# Method in brief: as §1
# [21] = biological target: Fuc(a1-2)[Gal(a1-3)]Gal(b1-3)GalNAc
# Method in brief: as §1
# [22] = biological target: Fuc(a1-2)[Gal(a1-3)]Gal(b1-3)GalNAc(b1-3)Gal(a1-4)Gal(b1-4)Glc
# Method in brief: as §1
# [23] = biological target: Fuc(a1-2)[Gal(a1-3)]Gal(b1-3)GlcNAc
# Method in brief: as §1
# [24] = biological target: Fuc(a1-2)[Gal(a1-3)]Gal(b1-3)GlcNAc(b1-2)Man(a1-3)[Fuc(a1-2)[Gal(a1-3)]Gal(b1-3)GlcNAc(b1-2)Man(a1-6)]Man(b1-4)GlcNAc(b1-4)GlcNAc
# Method in brief: as §1
# [25] = biological target: Fuc(a1-2)[Gal(a1-3)]Gal(b1-3)GlcNAc(b1-2)Man(a1-3)[Fuc(a1-2)[Gal(a1-3)]Gal(b1-3)GlcNAc(b1-2)Man(a1-6)]Man(b1-4)GlcNAc(b1-4)[Fuc(a1-6)]GlcNAc
# Method in brief: as §1
# [26] = biological target: Fuc(a1-2)[Gal(a1-3)]Gal(b1-3)GlcNAc(b1-3)GalNAc
# Method in brief: as §1
# [27] = biological target: Fuc(a1-2)[Gal(a1-3)]Gal(b1-3)GlcNAc(b1-6)GalNAc
# Method in brief: as §1
# [28] = biological target: Fuc(a1-2)[Gal(a1-3)]Gal(b1-4)Glc
# Method in brief: as §1
# [29] = biological target: Fuc(a1-2)[Gal(a1-3)]Gal(b1-4)GlcNAc
# Method in brief: as §1
# [30] = biological target: Fuc(a1-2)[Gal(a1-3)]Gal(b1-4)GlcNAc(b1-2)Man
# Method in brief: as §1
binder,measurement,setting,value
a L Fucosidase (Thermotoga maritima) (protein) MASMKPRYKPDWESLREHTVPKWFDKAKFGIFIHWGIYSVPGWATPTGELGKVPMDAWFFQNPYAEWYENSLRIKESPTWEYHVKTYGENFEYEKFADLFTAEKWDPQEWADLFKKAGAKYVIPTTKHHDGFCLWGTKYTDFNSVKRGPKRDLVGDLAKAVREAGLRFGVYYSGGLDWRFTTEPIRYPEDLSYIRPNTYEYADYAYKQVMELVDLYLPDVLWNNMGWPEKGKEDLKYLFAYYYNKHPEGSVNDRWGVPHWDFKTAEYHVNYPGDLPGYKWEFTRGIGLSFGYNRNEGPEHMLSVEQLVYTLVDVVSKGGNLLLNVGPKGDGTIPDLQKERLLGLGEWLRKYGDAIYGTSVWERCCAKTEDGTEIRFTRKCNRIFVIFLGIPTGEKIVIEDLNLSAGTVRHFLTGERLSFKNVGKNLEITVPKKLLETDSITLVLEAVEE,glycan array binding signal (z-score),[1],-0.257
same,glycan array binding signal (z-score),[2],0.815
same,glycan array binding signal (z-score),[3],0.144
same,glycan array binding signal (z-score),[4],0.657
same,glycan array binding signal (z-score),[5],0.033
same,glycan array binding signal (z-score),[6],0.141
same,glycan array binding signal (z-score),[7],-0.796
same,glycan array binding signal (z-score),[8],0.313
same,glycan array binding signal (z-score),[9],0.012
same,glycan array binding signal (z-score),[10],0.291
same,glycan array binding signal (z-score),[11],-0.765
same,glycan array binding signal (z-score),[12],-0.246
same,glycan array binding signal (z-score),[13],0.407
same,glycan array binding signal (z-score),[14],-0.491
same,glycan array binding signal (z-score),[15],-0.491
same,glycan array binding signal (z-score),[16],-0.336
same,glycan array binding signal (z-score),[17],0.48
same,glycan array binding signal (z-score),[18],-0.936
same,glycan array binding signal (z-score),[19],-0.485
same,glycan array binding signal (z-score),[20],-0.439
same,glycan array binding signal (z-score),[21],-0.35
same,glycan array binding signal (z-score),[22],-0.757
same,glycan array binding signal (z-score),[23],-0.641
same,glycan array binding signal (z-score),[24],0.112
same,glycan array binding signal (z-score),[25],1.3
same,glycan array binding signal (z-score),[26],-0.656
same,glycan array binding signal (z-score),[27],0.367
same,glycan array binding signal (z-score),[28],0.011
same,glycan array binding signal (z-score),[29],-0.916
same,glycan array binding signal (z-score),[30],0.54

# 2 entries from above in a different format.
binder	measurement	setting	value
a L Fucosidase (Thermotoga maritima) (protein) MASMKPRYKPDWESLREHTVPKWFDKAKFGIFIHWGIYSVPGWATPTGELGKVPMDAWFFQNPYAEWYENSLRIKESPTWEYHVKTYGENFEYEKFADLFTAEKWDPQEWADLFKKAGAKYVIPTTKHHDGFCLWGTKYTDFNSVKRGPKRDLVGDLAKAVREAGLRFGVYYSGGLDWRFTTEPIRYPEDLSYIRPNTYEYADYAYKQVMELVDLYLPDVLWNNMGWPEKGKEDLKYLFAYYYNKHPEGSVNDRWGVPHWDFKTAEYHVNYPGDLPGYKWEFTRGIGLSFGYNRNEGPEHMLSVEQLVYTLVDVVSKGGNLLLNVGPKGDGTIPDLQKERLLGLGEWLRKYGDAIYGTSVWERCCAKTEDGTEIRFTRKCNRIFVIFLGIPTGEKIVIEDLNLSAGTVRHFLTGERLSFKNVGKNLEITVPKKLLETDSITLVLEAVEE	glycan array binding signal (z-score)	[3]	0.144
same	glycan array binding signal (z-score)	[4]	0.657
